According to US20160232293A1, “DRUG SENSITIVITY BIOMARKERS AND METHODS OF IDENTIFYING AND USING DRUG SENSITIVITY BIOMARKERS” (SANFORD-BURNHAM MEDICAL RESEARCH INSTITUTE, priority 2013, published 2016):
At least one compound was matched to its structure with a doubt left.

Tested on: human cancer cell lines
Test: e-Drug analysis: CCLE drug activity (activity area) in cell lines with missense mutations in a protein functional region (PFR) or whole protein versus cell lines without
Format: cell-based
Conditions: PFR level

Nc1ncnc2c1c(-c1cccc(OCc3ccccc3)c1)cn2[C@H]1C[C@@H](CN2CCC2)C1 [AEW541]
drug activity with mutations in the PIK accessory domain (Pf00613) of PIK3CA (PIK3CA Pf00613): increased activity | drug activity with mutations in the p85 binding domain (Pf02192) of PIK3CA (PIK3CA Pf02192): decrease the activity | drug activity associated with mutations in the N-terminal intrinsically disordered region (IDR) of MSH6 (missense mutations, MSH6 N-terminal IDR): increased
